Measurements taken from patent publication EP0504914A2.
Results are given in words; binding and its absence hold for the method and conditions named. Some results given as binding are weak or reduced against the parent protein; the word gives no strength.

Chains of the proteins cited; added tags and fusions are not shown. Residues count along the entry.
UniProt P15209, residues 32-821: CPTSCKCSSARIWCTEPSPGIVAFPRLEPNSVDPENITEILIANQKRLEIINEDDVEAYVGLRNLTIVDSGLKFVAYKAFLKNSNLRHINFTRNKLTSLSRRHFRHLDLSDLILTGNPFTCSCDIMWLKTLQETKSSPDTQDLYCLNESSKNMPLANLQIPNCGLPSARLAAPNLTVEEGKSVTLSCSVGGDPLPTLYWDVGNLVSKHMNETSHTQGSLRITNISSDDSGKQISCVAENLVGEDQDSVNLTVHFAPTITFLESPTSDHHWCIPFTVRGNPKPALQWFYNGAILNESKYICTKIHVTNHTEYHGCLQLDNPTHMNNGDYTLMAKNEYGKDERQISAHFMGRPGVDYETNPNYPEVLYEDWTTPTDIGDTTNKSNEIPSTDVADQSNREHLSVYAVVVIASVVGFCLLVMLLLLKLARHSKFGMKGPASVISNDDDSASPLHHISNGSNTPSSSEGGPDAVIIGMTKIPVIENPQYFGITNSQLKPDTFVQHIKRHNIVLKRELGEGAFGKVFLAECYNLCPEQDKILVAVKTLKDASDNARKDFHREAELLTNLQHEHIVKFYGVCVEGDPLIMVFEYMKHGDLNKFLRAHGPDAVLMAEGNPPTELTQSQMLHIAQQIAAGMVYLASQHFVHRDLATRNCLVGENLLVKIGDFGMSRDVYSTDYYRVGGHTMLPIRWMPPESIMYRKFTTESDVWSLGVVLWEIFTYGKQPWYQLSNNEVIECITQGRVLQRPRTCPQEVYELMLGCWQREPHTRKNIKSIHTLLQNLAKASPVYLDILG

Columns and labels:
[1] = target: mouse trkB tyrosine protein kinase gp145^trkB (mouse) (UniProt P15209); test: [125I]-NT-3 binding to cells
[2] = target: mouse trkB tyrosine protein kinase gp145^trkB (mouse) (UniProt P15209); test: [125I]-NT-3 (1 nM) binding to B35-41 and Z52-17 cells at 4°C

B1: human neurotrophin-3 (NT-3) (ligand, UniProt P20783 139-257, looked up)
chain: YAEHKSHRGEYSVCDSESLWVTDKSSAIDIRGHQVTVLGEIKTGNSPVKQYFYETRCKEARPVKNGCRGIDDKHWNSQCKTSQTYVRALTSENNKLVGWRWIRIDTSCVCALSRKIGRT
modifications: 125I (Bolton-Hunter) where used as tracer
- binding [1]: binds
- binding [2]: binds
